# No constants are given. Whether binding was seen depends on the method and setting. Where a sequence is shown, tags or fusion partners need not be part of it.
# B1: N-terminal HA-tagged TIN2S (HA-TIN2S, 1-354 aa) (protein, UniProt Q9BSI4-2 1-354)
# chain: MATPLVAGPAALRFAAAASWQVVRGRCVEHFPRVLEFLRSLRAVAPGLVRYRHHERLCMGLKAKVVVELILQGRPWAQVLKALNHHFPESGPIVRDPKATKQDLRKILEAQETFYQQVKQLSEAPVDLASKLQELEQEYGEPFLAAMEKLLFEYLCQLEKALPTPQAQQLQDVLSWMQPGVSITSSLAWRQYGVDMGWLLPECSVTDSVNLAEPMEQNPPQQQRLALHNPLPKAKPGTHLPQGPSSRTHPEPLAGRHFNLAPLGRRRVQSQWASTRGGHKERPTVMLFPFRNLGSPTQVISKPESKEEHAIYTADLAMGTRAASTGKSKSPCQTLGGRALKENPVDLPATEQKE
# B2: N-terminal HA-tagged TIN2L (HA-TIN2L, 1-451 aa) (protein, UniProt Q9BSI4-1 1-451)
# chain: MATPLVAGPAALRFAAAASWQVVRGRCVEHFPRVLEFLRSLRAVAPGLVRYRHHERLCMGLKAKVVVELILQGRPWAQVLKALNHHFPESGPIVRDPKATKQDLRKILEAQETFYQQVKQLSEAPVDLASKLQELEQEYGEPFLAAMEKLLFEYLCQLEKALPTPQAQQLQDVLSWMQPGVSITSSLAWRQYGVDMGWLLPECSVTDSVNLAEPMEQNPPQQQRLALHNPLPKAKPGTHLPQGPSSRTHPEPLAGRHFNLAPLGRRRVQSQWASTRGGHKERPTVMLFPFRNLGSPTQVISKPESKEEHAIYTADLAMGTRAASTGKSKSPCQTLGGRALKENPVDLPATEQKENCLDCYMDPLRLSLLPPRARKPVCPPSLCSSVITIGDLVLDSDEEENGQGEGKESLENYQKTKFDTLIPTLCEYLPPSGHGAIPVSSCDCRDSSRPL
# Columns and labels:
# [1] = target: N-terminal HA-tagged TIN2S (HA-TIN2S, 1-354 aa) (human) (UniProt Q9BSI4); assay: AFM volume analysis
# [2] = target: N-terminal HA-tagged TIN2L (HA-TIN2L, 1-451 aa) (human) (UniProt Q9BSI4); assay: AFM volume analysis
Binder,binding [1],binding [2]
B1,no binding,–
B2,–,no binding
